Experimental data taken from patent US4735651A (The United States of America as represented by the …, priority 1986, dated 1988).

Experiment: general procedure: solution-phase peptide synthesis

| Substance | step yield (late stage modification step) | step yield (coupling step) |
| --- | --- | --- |
| Boc-N(CH3)Ala-Leu-N(CH3)Δ^z Phe-Gly-OMe | 80% | – |
| Boc-N(CH3)-Ala-Leu-N(CH3)Δ^z Phe-Gly-OMe | – | 88% |
